{"source": "patent US20250002470A1", "about": "“NITROGEN-CONTAINING COMPOUND, PREPARATION METHOD THEREFOR AND APPLICATION THEREOF” (ZHEJIANG AIXPLORER BIOTECH CO., LTD., priority 2021, published 2025)", "assay": "In vivo pharmacokinetic evaluation in mice (IV and PO)", "conditions": "mouse, CD-1 mice", "experimental": "CD-1 mice, after fasting overnight (free drinking), are divided into tail vein (IV) and gavage administration (PO) groups. The tail vein administration group collected 0.1 mL of blood from the orbital venous plexus before administration and 5 minutes, 15 minutes, 0.5 hours, 1 hour, 2 hours, 4 hours, 8 hours, 12 hours, and 24 hours after administration, and sample centrifugation at 4° C. for 5 minutes, and stored at −70° C. for testing. […] The plasma parent drug concentration was determined by LC-MS/MS.", "data": [{"smiles": "Cc1c(N[C@@H]2CCCC[C@H]2O)nnc(-c2ccc(C(F)(F)F)cc2O)c1C", "note": "[Comparison 4]", "values": [{"measurement": "clearance", "setting": "in vivo, IV, 3 mg/kg", "value": 40.5, "unit": "mL/min/kg"}, {"measurement": "AUC", "setting": "plasma, IV, 3 mg/kg", "value": 1590, "unit": "ng·h/mL"}, {"measurement": "half-life", "setting": "plasma, IV, 3 mg/kg", "value": 4.76, "unit": "h"}, {"measurement": "Vd", "setting": "plasma, IV, 3 mg/kg, read-out: Vss", "value": 5.89, "unit": "L/kg"}, {"measurement": "AUC", "setting": "plasma, PO, 20 mg/kg", "value": 5210, "unit": "ng·h/mL"}, {"measurement": "Cmax", "setting": "plasma, PO, 20 mg/kg", "value": 1710, "unit": "ng/mL"}, {"measurement": "half-life", "setting": "plasma, PO, 20 mg/kg", "value": 2.95, "unit": "h"}]}]}
